Test results as given in patent US20220119521A1.
Results are given in words; binding and its absence hold for the method and conditions named. Some entries that bind do so weakly or less than the wild type.

Key:
[1] = target: human MAdCAM (Mucosal addressin cell adhesion molecule), full length (human) (UniProt Q13477); test: IHC, human tissue
[2] = target: human MAdCAM (Mucosal addressin cell adhesion molecule), full length (human) (UniProt Q13477); test: IHC, human ileum sections
[3] = target: human MAdCAM (Mucosal addressin cell adhesion molecule), full length (human) (UniProt Q13477); test: FACS, CHO cells expressing human MAdCAM
[4] = target: human MAdCAM (Mucosal addressin cell adhesion molecule), full length (human) (UniProt Q13477); test: hybridoma sub-clone screening (assays described below in the filing)
[5] = target: human MAdCAM (Mucosal addressin cell adhesion molecule), full length (human) (UniProt Q13477); test: binding to CHO cells expressing human MAdCAM

Measured: binding

B1: anti-MAdCAM monoclonal antibody 7.26.4 (antibody, human IgG2, kappa, V domains shown)
VH: QVQLVQSGAEVKKPGASVKVSCEASGYTFTSYGIDWVRQAPGQGLEWMGWISVYSGNTNYAQKLQGRVTMSTDTSTSTAYMELRSLRSDDTAVYYCAREGSSSSGDYYYGMDVWGQGTTVTVSS
VL: DIVMTQTPLSLSVTPGQPASISCKSNQSLLYSDGKTYLFWYLQKPGQPPQLLIYEVSNRFSGVPDRFSGSGSGTDFTLKISRVEAEDVGVYYCMQSIQLPWTFGQGTKVEIKR
not listed: [5]
binds: all other assays above

B2: anti-MAdCAM monoclonal antibody 6.14.2 (antibody, human IgG4, kappa, V domains shown)
VH: EVQLLESGGGLVQPGGSLRLSCAASGLTFNNSAMTWVRQAPGKGLEWVSTTSGSGGTTYYADSVKGRFTISRDSPKNTLYLQMNSLRAEDTAVYYCAARGYSYGTTPYEYWGQGTLVTVSS
VL: DIQMTQSPSSLSASVGDRVTITCRASRSISSYLNWYQQKPGKAPKVLIFFVSSLQSGVPSRFSGSGSGTDFTLTISSLQPEDFATYYCQQNYIPPITFGQGTRLEIRR
not listed: [5]
binds: all other assays above

B3: anti-MAdCAM monoclonal antibody 6.22.2 (antibody, human IgG4, kappa, V domains shown)
VH: QVQLVESGGGVVQPGRSLRLSCAASGHTFSSDGMHWVRQAPGKGLEWVAIIWYDGSNKYYADSVKGRFTISRDNSKNTLYLQMNSLRAEDTAVYYCARDPGYYYGMDVWGQGTTVTVSS
VL: EIVLTQSPDFQSVTPKEKVTITCRASQRIGSSLHWYQQKPDQSPKLLIKYASQSFSGVPSRFSGSGSGTNFTLTINGLEAEDAATYYCHQSGRLPLTFGGGTKVEIKR
not listed: [5]
binds: all other assays above

B4: anti-MAdCAM monoclonal antibody 6.34.2 (antibody, human IgG4, kappa, V domains shown)
VH: QVQLVESGGGVVQPGRSLRLSCAASGFTFSSYGMHWVRQAPGKGLEWVAVISNDGNNKYYADSVKGRFTISRDNSKNTLYLQMNSLSAEDTAVYYCARDSTAITYYYYGMDVWGQGTTVTVSS
VL: DIQMTQSPSSLSASVGDRVTITCRASQNISSYLNWFQQKPGKAPKLLIYAASGLKRGVPSRFSGSGSGTDFTLTIRTLQPDDFATYSCHQSYSLPFTFGPGTKVDIKR
not listed: [5]
binds: all other assays above

B5: anti-MAdCAM monoclonal antibody 6.73.2 (antibody, human IgG4, kappa, V domains shown)
VH: EVQLLESGGDLVQPGGSLRLSCAASGFTFRSYAMNWVRQAPGKGLEWVSVISGRGGTTYYADSVKGRFTISRDNSKNTLYLQMNSLRAEDAAVYYCAKIAVAGEGLYYYYGMDVWGQGTTVTVSS
VL: DIQMTQSPSSLSASVGDRVTFTCRASQNITNYLNWYQQKPGKAPKLLIYAASSLPRGVPSRFRGSGSGTDFTLTISSLQPEDFATYYCQQSYSNPPECGFGQGTTLDIKR
not listed: [5]
binds: all other assays above

B6: anti-MAdCAM monoclonal antibody 6.77.1 (antibody, human IgG4, kappa, V domains shown)
VH: EVQLVESGGGLVKPGGSLRLSCAASGFTFSSYSMNWVRQAPGKGLEWVSSISSSSSYIYYADSVKGRFTISRDNAKNSLYLQMNSLRAEDTAVYYCARDGYSSGWSYYYYYGMDVWGQGTTVTVSS
VL: DIVMTQTPLSLSVTPGQPASISCNSSQSLLLSDGKTYLNWYLQKPGQPPQLLIYEVSNRFSGVPDRFSGSGSGTDFTLKISRVEAEDVGVYSCMQSIQLMCSFGQGTKLEIKR
not listed: [5]
binds: all other assays above

B7: modified anti-MAdCAM monoclonal antibody 6.34.2-mod (antibody, human IgG2, kappa, V domains shown)
VH: QVQLVESGGGVVQPGRSLRLSCAASGFTFSSYGMHWVRQAPGKGLEWVAVISNDGNNKYYADSVKGRFTISRDNSKNTLYLQMNSLRAEDTAVYYCARDSTAITYYYYGMDVWGQGTTVTVSS
VL: DIQMTQSPSSLSASVGDRVTITCRASQSISSYLNWYQQKPGKAPKLLIYAASGLKRGVPSRFSGSGSGTDFTLTISSLQPEDFATYYCHQSYSLPFTFGPGTKVDIKR
binds: [5]

B8: modified anti-MAdCAM monoclonal antibody 6.77.1-mod (antibody, human IgG2, kappa, V domains shown)
VH: EVQLVESGGGLVKPGGSLRLSCAASGFTFSSYSMNWVRQAPGKGLEWVSSISSSSSYIYYADSVKGRFTISRDNAKNSLYLQMNSLRAEDTAVYYCARDGYSSGWSYYYYYGMDVWGQGTTVTVSS
VL: DIVMTQTPLSLSVTPGQPASISCKSSQSLLLSDGKTYLNWYLQKPGQPPQLLIYEVSNRFSGVPDRFSGSGSGTDFTLKISRVEAEDVGVYSCMQSIQLMSSFGQGTKLEIKR
binds: [5]

B9: modified anti-MAdCAM monoclonal antibody 7.26.4-mod (antibody, human IgG2, kappa, V domains shown)
VH: QVQLVQSGAEVKKPGASVKVSCEASGYTFTSYGIDWVRQAPGQGLEWMGWISVYSGNTNYAQKLQGRVTMSTDTSTSTAYMELRSLRSDDTAVYYCAREGSSSSGDYYYGMDVWGQGTTVTVSS
VL: DIVMTQTPLSLSVTPGQPASISCKSSQSLLYSDGKTYLFWYLQKPGQPPQLLIYEVSNRFSGVPDRFSGSGSGTDFTLKISRVEAEDVGVYYCMQSIQLPWTFGQGTKVEIKR
binds: [5]
